This note sets out measurements from PubChem BioAssay AID2685 (National Center for Advancing Translational Sciences (NCATS), 2010).

Each structure is given as a SMILES string. This is one part of the list. Shown are side measurements of this screen, not its main read-out; they come without a call. Compounds called inactive in the main read-out are mostly missing here. Words in brackets tell the shape of the fitted curve; partial curves, single points and poor fits give uncertain potencies.

A short description of this experiment: qHTS Assay for Lipid Storage Modulators in Drosophila S3 Cells.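 On cell number change: cells counted by Cell Tracker Red CMTPX staining in the red channel.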 The note with it: BODIPY lipid droplet fluorescence, 18-24 h; for cell number change: measured here: cell count max response, cells fed with added oleic acid. Put shortly: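 Drosophila S3 cells got compounds at several concentrations plus oleic acid (400 uM solution). Laser-scanning cytometry with 488 nm excitation read lipid droplets at 500-530 nm and cells at 575-640 nm. Percent activity was relative to 20 uM Triacsin C.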
Background: Quantitative high-throughput screening tests each substance at several concentrations.

[1] abbreviates: measured here: cell number channel AC50, cells fed with added oleic acid.
[2] abbreviates: measured here: lipid fluorescence (Fed channel) AC50, cells fed with added oleic acid.

`CN(C)S(=O)(=O)c1cccc(NC(=O)c2sccc2-c2ccccc2)c1`: the cell number change came to 6.49%.

In the case of `Cc1nc(NC(=O)/C=C/c2ccccc2)sc1C(=O)N(C)C`, the cell number change was found to be 45.4%. Besides, under setting [1], the AC50 – broadly, the concentration at which the activity in the assay is half-maximal – is 7.31 µM [rising, partial curve]. The AC50 under setting [2] was 9.2 µM [rising, partial curve].

With `Cc1csc(NC(=O)CCC(=O)N(CC(=O)NC2CCCC2)c2ccccc2)n1`, the cell number change was -0.451%. For the same molecule, the AC50 under setting [2] was 6.51 µM [rising, single point].

With `Cc1ccc(C(=O)COC(=O)CNC(=O)Cc2ccccc2)cc1[N+](=O)[O-]`, the cell number change turned out to be 25.4%.

In the case of `CC(=O)NC1C(=O)N(CC(C)C)c2ccccc21` (stereo unspecified), the cell number change is -103%. Besides, the AC50 under setting [1] was 29.1 µM [falling, single point].

Take `O=C(C1CCCN(Cc2ccc(F)cc2)C1)N1CCCCC1` (stereo unspecified): the cell number change amounted to 1.77%. The AC50 under setting [2] is 0.13 µM [falling, full curve, poor fit].

Consider `COc1cc(/C=C/C(=O)OCC(=O)Nc2ccc3c(c2)OCCO3)ccc1O`, for which the cell number change was found to be 22.6%. For the same molecule, the AC50 under setting [2] is 29.1 µM [rising, single point].

Regarding `COc1ccc(C(c2c[nH]c3ccccc23)c2c[nH]c3ccccc23)cc1O`, the cell number change was -50.4%. Also, under setting [1], the concentration at half-maximal activity (AC50) is 32.6 µM [falling, single point]. Besides, the AC50 under setting [2] is 29.1 µM [falling, single point].

On to `CCOC(=O)CNC(=O)N1c2ccccc2Sc2ccccc21`, for which the cell number change is 7.76%. Also, the AC50 under setting [2] is 0.58 µM [falling, full curve].

Turning to `COc1ccc(-n2ccnc2CN2CCN(C3CCCC3)C(CCO)C2)cc1` (stereo unspecified), the cell number change was 8.01%. Moreover, the AC50 under setting [2] is 6.51 µM [falling, single point].

`CN(C)c1ccc(C(O)Cc2nc3ccccc3n2C)cc1` (stereo unspecified): the cell number change amounted to 21.6%.

For the molecule `Cc1ccc(C)c(S(=O)(=O)Nc2ccc(S(=O)(=O)Nc3onc(C)c3C)cc2)c1`, the cell number change was -10.5%. Moreover, the half-maximal activity concentration (AC50) under setting [2] is 29.1 µM [falling, single point].

Regarding `O=S(=O)(c1ccccc1)N1CCN(CCc2ccccc2)CC1`, the cell number change was -2.47%.

Consider `Cc1cc(S(=O)(=O)NCCCN2CCOCC2)ccc1Br`, for which the cell number change turned out to be 1.9%.

`O=S(=O)(NCC1CCCO1)c1ccc(Cl)cc1` (stereo unspecified): the cell number change worked out at 1.57%. The AC50 under setting [2] was 6.51 µM [rising, partial curve, poor fit].

Take `Cc1ccc(-c2nc3cccnc3o2)cc1NC(=O)COc1ccc(Cl)cc1C`: the cell number change worked out at 23.4%. In addition, under setting [2], the AC50 is 0.651 µM [rising, full curve].

Turning to `CC(C)C(NS(=O)(=O)c1cccc2nsnc12)C(=O)NC1CCCCC1` (stereo unspecified), the cell number change was -7.37%.

Regarding `NS(=O)(=O)c1ccc(CCNC(=O)c2ccccc2-c2ccccc2)cc1`, the cell number change came to 19.6%. Further, the AC50 under setting [1] is 1.84 µM [rising, partial curve]. Further, the AC50 under setting [2] was 1.16 µM [rising, single point].

For `O=C(NCc1ccccc1)C12CC3CC(CC(C3)C1)C2`, the cell number change is -5.7%.

Turning to `O=S(=O)(CCc1ccccc1)/N=C/c1cccs1`, the cell number change worked out at 0.068%.

For `Cc1csc(NC(=O)c2ccco2)c1C(=O)c1ccccc1`, under setting [2], the AC50 was 6.51 µM [rising, single point].

In the case of `O=C(Nc1ccccc1)N1CCCN(c2ccc(C(F)(F)F)cn2)CC1`, the cell number change amounted to 6.19%. Under setting [2], the concentration at half-maximal activity (AC50) is 0.103 µM [falling, partial curve, poor fit].

As for `CCOc1ccc2nc(NC(=O)c3ccc(S(=O)(=O)N4CCOCC4)cc3)sc2c1`, the cell number change was -4.48%.

Take `O=C(CSc1ccc2nnc(-c3cccs3)n2n1)N1CCCC1`: the cell number change was -39.5%. In addition, the concentration at half-maximal activity (AC50) under setting [1] is 20.6 µM [falling, single point]. The AC50 under setting [2] is 20.6 µM [falling, single point].

Turning to `O=c1[nH]c(=O)n(C2C[C@H](O)[C@@H](CO)O2)cc1C(F)(F)F` (stereo partly specified), the cell number change was -26.2%. For the same molecule, the AC50 under setting [2] is 7.31 µM [falling, partial curve].

Regarding `Cc1ccc(CNc2nc3ccccc3n2C)o1`, the cell number change was 0.529%.

On to `CCc1cccc(C)c1NC(=O)CO/N=C(\N)CC(=O)NC1CCCCC1`, for which the cell number change was found to be 33.2%. The AC50 under setting [1] is 29.1 µM [rising, single point].

As to `Cc1cccc(CCNS(=O)(=O)c2ccc(S(=O)(=O)N3CCCCC3)cc2)c1`, the cell number change is 12.4%. Under setting [2], the AC50 is 29.1 µM [rising, single point].

As for `COCCNCC(O)CON=C1c2ccccc2-c2ccccc21` (stereo unspecified), the cell number change is -4.44%. Also, the AC50 under setting [2] is 5.8 µM [falling, single point].

For `CCOC(=O)c1ccc(NC(=O)c2ccc(CN3CCc4ccccc4C3)cc2)cc1`, the AC50 under setting [2] is 18.4 µM [falling, single point].

On to `COC(=O)[C@H](CCSC)NC(=O)Nc1ccc(C(C)C)cc1`, for which the cell number change is -36.5%. In addition, the AC50 under setting [1] was 4.11 µM [falling, full curve, poor fit]. Besides, the AC50 under setting [2] was 6.51 µM [falling, single point].

Turning to `CCOc1ccc(S(=O)(=O)N2CCCCC2)cc1NC(=O)CN1C(=O)NC(CC)(c2ccccc2)C1=O` (stereo unspecified), the cell number change is 6.97%. Under setting [2], the AC50 was 29.1 µM [rising, single point].

For the molecule `CSCCC(NC(=O)c1ccco1)C(=O)OCC(=O)N(Cc1ccccc1)C(C)(C)C` (stereo unspecified), the cell number change was -2.35%. For the same molecule, the AC50 under setting [2] was 0.164 µM [rising, full curve, poor fit].

On to `CSc1cccc(NC(=O)/C=C/c2cccc(Cl)c2)c1`, for which the cell number change was -22.6%. Under setting [2], the AC50 is 23.1 µM [rising, partial curve, poor fit].

Consider `O=S(=O)(c1ccccc1C(F)(F)F)N1CCN(S(=O)(=O)c2ccccc2C(F)(F)F)CC1`, for which the cell number change is -21%. Further, the half-maximal activity concentration (AC50) under setting [1] was 0.651 µM [falling, full curve, poor fit].

Regarding `CCc1cc2c3c(c(=O)oc2cc1O)CCCC3`, under setting [2], the AC50 was 29.1 µM [falling, single point].

Consider `COc1ccc(-c2ccc(=O)n(Cc3cc(=O)n4ccccc4n3)n2)cc1`, for which the half-maximal activity concentration (AC50) runs as follows: under setting [1], 2.59 µM [rising, partial curve]; under setting [2], 2.31 µM [rising, partial curve, poor fit].

In the case of `O=C(NCc1ccccc1)C(=O)NCC(c1ccco1)N1CCN(c2ccccc2F)CC1` (stereo unspecified), the cell number change was determined as 5.69%. Under setting [2], the AC50 is 6.51 µM [falling, single point].

In the case of `O=C(NC1(C(F)(F)F)NC(=O)N(C2CCCC2)C1=O)C1CC1` (stereo unspecified), the cell number change was -41.7%. In addition, the AC50 under setting [1] was 10.3 µM [falling, partial curve]. For the same molecule, the half-maximal activity concentration (AC50) under setting [2] is 7.31 µM [falling, partial curve].

In the case of `COc1ccc(/C=C(/NC(=O)c2ccccc2)C(=O)NC(Cc2c[nH]c3ccccc23)C(=O)O)cc1` (stereo unspecified), the AC50 under setting [2] is 6.51 µM [falling, single point].

Regarding `O=C(Nc1cccc(-n2cnnn2)c1)c1cc2ccccc2o1`, the cell number change is 28.4%.

`CCN(CC)C(=O)c1[nH]cnc1C(=O)Nc1cccc(C)c1`: the cell number change worked out at 9.44%. Also, the concentration at half-maximal activity (AC50) under setting [2] is 0.116 µM [rising, full curve, poor fit].

On to `Cc1ccc(C(=O)N(CN2CCCC2=O)c2ccccc2)cc1`, for which the cell number change was found to be 38.3%. Besides, under setting [1], the AC50 is 3.26 µM [rising, full curve].

For `Cn1c(=O)c2c(ncn2CCN(CCO)Cc2ccccc2)n(C)c1=O`, the cell number change is -20.5%. Further, the AC50 under setting [1] was 4.11 µM [falling, single point]. Under setting [2], the AC50 was 6.51 µM [falling, single point].

With `FC(F)(F)c1ccc(/C=N/n2c(COc3ccccc3)n[nH]c2=S)cc1`, the cell number change is -45.2%. Also, the AC50 under setting [1] was 11.6 µM [falling, partial curve]. Also, under setting [2], the concentration at half-maximal activity (AC50) is 14.6 µM [falling, single point].

For `COc1cccc(NC(=O)Cc2csc(NC(=O)Nc3ccccc3OC)n2)c1`, the cell number change was -2.78%. Besides, the AC50 under setting [2] is 6.51 µM [falling, full curve].

`CCOC(=O)CN(C(=O)CSc1nnc2c(n1)[nH]c1ccc(OC)cc12)c1ccc(F)cc1`: the cell number change was -26.5%. The AC50 under setting [2] is 29.1 µM [falling, single point].

Regarding `O=C(O)CCCN1C(=O)C(=O)/C(=C(/O)c2ccccc2)C1/C=C/c1ccccc1` (stereo unspecified), the cell number change amounted to 15.4%.

With `CC(=O)c1ccc(OCCCCOc2ccc(C(C)=O)cc2)cc1`, the AC50 under setting [2] is 29.1 µM [rising, single point].

Consider `Cc1ccc(NC(=S)N/N=C2/CCCc3c(C)cc(C)cc32)cc1`, for which the cell number change is 68.7%. The AC50 under setting [1] is 2.06 µM [rising, full curve].

For `CCC(C)Nc1nc(-c2c[nH]c3ccccc23)cs1` (stereo unspecified), the cell number change is -43.7%. Besides, the AC50 under setting [1] was 20.6 µM [falling, single point]. For the same molecule, the concentration at half-maximal activity (AC50) under setting [2] is 29.1 µM [falling, single point].

Consider `CC(=O)Nc1cccc(C(=O)OCc2ccc(C(=O)Oc3ccc(Cl)cc3)cc2)c1`, for which the cell number change is 36.1%. Besides, under setting [1], the AC50 was 6.51 µM [rising, single point].

Consider `COC(=O)c1ccc(OCC(=O)c2ccc(O)cc2O)cc1`, for which the cell number change was -27.4%. Further, the AC50 under setting [2] is 0.0651 µM [rising, full curve, poor fit].

Regarding `COc1ccc(NC(=O)NNC(=O)c2ccc3ccccc3c2)cc1OC`, the cell number change turned out to be 24.9%. For the same molecule, the AC50 under setting [1] is 2.31 µM [rising, full curve, poor fit]. Besides, the AC50 under setting [2] was 23.1 µM [rising, partial curve].

For `O=C(NCc1cccnc1)c1ccc(=O)oc1`, the cell number change was -6.64%. The AC50 under setting [2] was 25.9 µM [falling, single point].

Consider `Cc1cccc(CSc2nnc(C)c(=O)n2N)c1`, for which the cell number change was 14%. Moreover, the AC50 under setting [2] is 2.91 µM [rising, partial curve].

`Cc1noc(C)c1C(=O)OCC(=O)Nc1ccc(S(N)(=O)=O)cc1`: the cell number change amounted to 8.14%. Besides, under setting [2], the AC50 was 29.1 µM [falling, single point].

For the molecule `Cc1ccc(C2=CC(C)(c3ccc(C)cc3)Nc3nc(C(F)(F)F)nn32)cc1` (stereo unspecified), the cell number change was 42.4%. Also, under setting [1], the AC50 is 4.11 µM [rising, full curve, poor fit]. Also, the AC50 under setting [2] was 4.11 µM [rising, full curve].

In the case of `Cn1c(=N)n(CC(=O)c2ccc(Br)s2)c2ccccc21`, the cell number change was found to be 1.75%. Under setting [2], the AC50 is 0.366 µM [falling, single point].

Consider `CN(C)S(=O)(=O)c1ccc(N2CCCC2)c(C(=O)N2CCN(S(=O)(=O)c3ccc(F)cc3)CC2)c1`, for which the cell number change is -7.07%. Moreover, under setting [1], the AC50 is 0.58 µM [falling, full curve, poor fit].

Turning to `Cc1cccc(NC(=O)NCCCCc2ccccc2)c1`, the cell number change came to 12%. Moreover, under setting [2], the half-maximal activity concentration (AC50) was 2.51 µM [rising, partial curve].
